Here are results for 25 molecules from the supplement of paper PMC6143611.

Experiment [1] deals with Danio rerio larva rod photoreceptor outer segment. Briefly: rod outer segment growth distance Dg, difference from same-week DMSO control mean; higher = more outer segment growth. To be noted: 20 µM; treatment time: 4 days (6-10 dpf).
For experiment [2] the test system is unchanged. Briefly: rod outer segment shedding distance Ds, difference from same-week DMSO control mean; higher = less outer segment shedding. To be noted: 20 µM; treatment time: 4 days (6-10 dpf).

The structures appear in SMILES notation. Structures can show the parent of a compound that is named as a salt. ± gives the uncertainty stated by the source. The list shows a part of the results. Baselines shift from plate to plate; read single values as rough.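 A heat-shock-induced fluorescent stripe was set in larval rod outer segments at 6 dpf. Shedding distance ran from stripe to outer segment tip, measured by confocal stacks in about three fish per compound. Controls: 0.2% DMSO vehicle. Flagged compounds showed ≥20% change from same-week control, p < 0.001 (Dunnett test on mixed-effects models).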

Consider `O=C1C(=O)N(Cc2ccc(Cl)c(Cl)c2)c2ccccc21` [Apoptosis Activator 2], for which the “rod outer segment growth distance Dg” value in experiment [1] is -1.18 ± 0.21 um. Besides, in experiment [2], the “rod outer segment shedding distance Ds” value is -0.84 ± 0.14 um.

`Nc1nc(N)c2nc(-c3cccc(O)c3)c(-c3cccc(O)c3)nc2n1`: in experiment [1], the “rod outer segment growth distance Dg” value amounted to 0.49 ± 0.31 um. Moreover, the “rod outer segment shedding distance Ds” value in experiment [2] was -0.07 ± 0.17 um.

For the molecule `Nc1ccn([C@@H]2O[C@H](CO)[C@@H](O)[C@H]2O)c(=O)n1` [Cytidine], the “rod outer segment growth distance Dg” value in experiment [1] amounted to 0.66 ± 0.25 um. Further, the “rod outer segment shedding distance Ds” value in experiment [2] was -0.6 ± 0.26 um.

Consider `CCCNC(C)C(=O)Nc1ccccc1C` (stereo not given) [Prilocaine], for which the “rod outer segment growth distance Dg” value in experiment [1] was found to be 0.32 ± 0.17 um. In addition, the “rod outer segment shedding distance Ds” value in experiment [2] is -0.05 ± 0.16 um.

As to `Cc1nc2c([nH]1)-c1ccccc1N(C(=O)c1ccc(NC(=O)c3ccccc3-c3ccccc3)cc1)CC2` [Conivaptan HCl], the “rod outer segment growth distance Dg” value in experiment [1] amounted to 0.65 ± 0.24 um. Moreover, in experiment [2], the “rod outer segment shedding distance Ds” value is -0.59 ± 0.25 um.

`C#Cc1cccc(Nc2ncnc3cc4c(cc23)OCCOCCOCCO4)c1` [Icotinib]: the “rod outer segment growth distance Dg” value in experiment [1] is -0.03 ± 0.28 um. In experiment [2], the “rod outer segment shedding distance Ds” value is -0.26 ± 0.22 um.

For the molecule `CCOc1ccc(Cc2cc([C@@H]3O[C@H](CO)[C@@H](O)[C@H](O)[C@H]3O)ccc2Cl)cc1` [Dapagliflozin], the “rod outer segment growth distance Dg” value in experiment [1] is -0.88 ± 0.15 um. Further, the “rod outer segment shedding distance Ds” value in experiment [2] was -0.73 ± 0.17 um.

On to `COc1cc(C(C)=O)ccc1O` [Apocynin], for which the “rod outer segment growth distance Dg” value in experiment [1] is -0.03 ± 0.29 um. In addition, the “rod outer segment shedding distance Ds” value in experiment [2] is -0.26 ± 0.32 um.

Turning to `CCCc1nn(C)c2c(=O)[nH]c(-c3cc(S(=O)(=O)N4CCN(C)CC4)ccc3OCC)nc12` [Sildenafil Citrate], in experiment [1], the “rod outer segment growth distance Dg” value was 0.56 ± 0.13 um. Also, in experiment [2], the “rod outer segment shedding distance Ds” value came out at 0.02 ± 0.19 um.

Regarding `Oc1cccc(-c2nc(N3CCOCC3)c3oc4ncccc4c3n2)c1`, the “rod outer segment growth distance Dg” value in experiment [1] is -1.4 ± 0.19 um. The “rod outer segment shedding distance Ds” value in experiment [2] is -0.83 ± 0.23 um.

For `NC(=O)c1ccc(N(C(N)=O)c2c(F)cccc2F)nc1-c1ccc(F)cc1F`, the “rod outer segment growth distance Dg” value in experiment [1] was 0.22 ± 0.16 um. The “rod outer segment shedding distance Ds” value in experiment [2] is -0.03 ± 0.14 um.

Take `CCc1ccc(CCOc2ccc(CC3SC(=O)NC3=O)cc2)nc1` (stereo not given) [Pioglitazone]: in experiment [1], the “rod outer segment growth distance Dg” value was -2.52 ± 0.25 um. The “rod outer segment shedding distance Ds” value in experiment [2] was -0.87 ± 0.19 um.

`COc1cc(NC(=O)c2ccccn2)ccc1Cl`: the “rod outer segment growth distance Dg” value in experiment [1] is -0.12 ± 0.3 um. Besides, the “rod outer segment shedding distance Ds” value in experiment [2] was found to be 0.07 ± 0.17 um.

On to `CC(=O)N[C@H]1[C@H]([C@H](O)[C@H](O)CO)OC(C(=O)O)=C[C@@H]1NC(=N)N` [Zanamivir], for which the “rod outer segment growth distance Dg” value in experiment [1] came to 0.35 ± 0.19 um. In addition, the “rod outer segment shedding distance Ds” value in experiment [2] is -0.01 ± 0.13 um.

In the case of `Cc1ccc(Nc2c(F)cccc2Cl)c(CC(=O)O)c1` [Lumiracoxib], in experiment [1], the “rod outer segment growth distance Dg” value was -0.53 ± 0.18 um. In addition, in experiment [2], the “rod outer segment shedding distance Ds” value was -0.18 ± 0.12 um.

On to `CCN(Cc1ccncc1)C(=O)C(CO)c1ccccc1` (stereo not given) [Tropicamide], for which the “rod outer segment growth distance Dg” value in experiment [1] turned out to be 0.46 ± 0.25 um. The “rod outer segment shedding distance Ds” value in experiment [2] was -1.08 ± 0.3 um.

For the molecule `N[C@@H]1CN(c2c(F)cc3c(=O)c(C(=O)O)cn([C@@H]4C[C@@H]4F)c3c2Cl)CC12CC2` [Sitafloxacin Hydrate], in experiment [1], the “rod outer segment growth distance Dg” value is -0.71 ± 0.3 um. Moreover, in experiment [2], the “rod outer segment shedding distance Ds” value was -0.07 ± 0.36 um.

Take `CCn1cc(C(=O)O)c(=O)c2ccc(C)nc21` [Nalidixic acid]: in experiment [1], the “rod outer segment growth distance Dg” value was -2.72 ± 1.1 um. Besides, the “rod outer segment shedding distance Ds” value in experiment [2] was -3.28 ± 1.2 um.

Take `CC1=C(/C=C/C(C)=C/C=C/C(C)=C/C=C/C=C(C)/C=C/C=C(C)/C=C/C2=C(C)CCCC2(C)C)C(C)(C)CCC1` [Beta Carotene]: the “rod outer segment growth distance Dg” value in experiment [1] was -1.15 ± 0.23 um. Besides, the “rod outer segment shedding distance Ds” value in experiment [2] was -0.38 ± 0.18 um.

In the case of `O=C(/C=C/c1ccc(O)c(O)c1)O[C@@H]1C[C@](O)(C(=O)O)C[C@@H](O)[C@H]1O` [Chlorogenic Acid], the “rod outer segment growth distance Dg” value in experiment [1] was 0.34 ± 0.32 um. In experiment [2], the “rod outer segment shedding distance Ds” value was found to be 0.25 ± 0.33 um.

With `CCc1c(C(=O)NCCc2ccc(N3CCCCC3)cc2)[nH]c2ccc(Cl)cc12`, in experiment [1], the “rod outer segment growth distance Dg” value is -1.5 ± 0.21 um. Besides, the “rod outer segment shedding distance Ds” value in experiment [2] came out at 0.47 ± 0.16 um.

Regarding `CCC[C@@H]1C[C@@H](C(=O)N[C@@H]([C@H]2O[C@H](SC)[C@H](O)[C@@H](O)[C@H]2O)[C@H](C)Cl)N(C)C1` [Clindamycin HCl], the “rod outer segment growth distance Dg” value in experiment [1] is -0.9 ± 0.27 um. Besides, the “rod outer segment shedding distance Ds” value in experiment [2] turned out to be 0.4 ± 0.27 um.

On to `COC(=O)N[C@H](C(=O)N1CCC[C@H]1c1ncc(-c2ccc(-c3ccc(-c4cnc([C@@H]5CCCN5C(=O)[C@@H](NC(=O)OC)C(C)C)[nH]4)cc3)cc2)[nH]1)C(C)C`, for which the “rod outer segment growth distance Dg” value in experiment [1] is -1.23 ± 0.17 um. In addition, the “rod outer segment shedding distance Ds” value in experiment [2] is -0.34 ± 0.17 um.

As to `CN(C)Cc1ccc(-c2nc3cccc4c3n2CCNC4=O)cc1`, the “rod outer segment growth distance Dg” value in experiment [1] was -0.26 ± 0.34 um. In addition, the “rod outer segment shedding distance Ds” value in experiment [2] was -0.09 ± 0.26 um.

As to `Nc1ncnc2c1ncn2[C@@H]1O[C@H](CO)[C@@H](O)[C@H]1O` [Adenosine], the “rod outer segment growth distance Dg” value in experiment [1] was -0.44 ± 0.26 um. Also, in experiment [2], the “rod outer segment shedding distance Ds” value is -0.19 ± 0.16 um.
